First the molecules themselves.
B1: 2′,3′-cyclic-nucleotide 3′-phosphodiesterase (protein, UniProt P16330 1-420)
chain: MNTSFTRKSHTFLPKLFFRKMSSSGAKEKPELQFPFLQDEDTVATLHECKTLFILRGLPGSGKSTLARLILEKYHDGTKMVSADAYKIIPGSRADFSEAYKRLDEDLAGYCRRDIRVLVLDDTNHERERLDQLFEMADQYQYQVVLVEPKTAWRLDCAQLKEKNQWQLSADDLKKLKPGLEKDFLPLYFGWFLTKKSSETLRKAGQVFLEELGNHKAFKKELRHFISGDEPKEKLELVSYFGKRPPGVLHCTTKFCDYGKAAGAEEYAQQEVVKRSYGKAFKLSISALFVTPKTAGAQVVLTDQELQLWPSDLDKPSASEGLPPGSRAHVTLGCAADVQPVQTGLDLLDILQQVKGGSQGEAVGELPRGKLYSLGKGRWMLSLTKKMEVKAIFTGYYGKGKPVPIHGSRKGGAMQICTII
B2: Aconitate hydratase, mitochondrial (protein, UniProt Q99KI0 28-780)
chain: QRAKVAMSHFEPSEYIRYDLLEKNINIVRKRLNRPLTLSEKIVYGHLDDPANQEIERGKTYLRLRPDRVAMQDATAQMAMLQFISSGLPKVAVPSTIHCDHLIEAQVGGEKDLRRAKDINQEVYNFLATAGAKYGVGFWRPGSGIIHQIILENYAYPGVLLIGTDSHTPNGGGLGGICIGVGGADAVDVMAGIPWELKCPKVIGVKLTGSLSGWTSPKDVILKVAGILTVKGGTGAIVEYHGPGVDSISCTGMATICNMGAEIGATTSVFPYNHRMKKYLSKTGRTDIANLAEEFKDHLVPDPGCQYDQVIEINLNELKPHINGPFTPDLAHPVADVGTVAEKEGWPLDIRVGLIGSCTNSSYEDMGRSAAVAKQALAHGLKCKSQFTITPGSEQIRATIERDGYAQILRDVGGIVLANACGPCIGQWDRKDIKKGEKNTIVTSYNRNFTGRNDANPETHAFVTSPEIVTALAIAGTLKFNPETDFLTGKDGKKFKLEAPDADELPRSDFDPGQDTYQHPPKDSSGQRVDVSPTSQRLQLLEPFDKWDGKDLEDLQILIKVKGKCTTDHISAAGPWLKFRGHLDNISNNLLIGAINIENGKANSVRNAVTQEFGPVPDTARYYKKHGIRWVVIGDENYGEGSSREHAALEPRHLGGRAIITKSFARIHETNLKKQGLLPLTFADPSDYNKIHPVDKLTIQGLKDFAPGKPLKCVIKHPNGTQETILLNHTFNETQIEWFRAGSALNRMKELQQ
B3: Cullin-associated NEDD8-dissociated protein 1 (protein, UniProt Q6ZQ38 1-1230)
chain: MASASYHISNLLEKMTSSDKDFRFMATNDLMTELQKDSIKLDDDSERKVVKMILRLLEDKNGEVQNLAVKCLGPLVSKVKEYQVETIVDTLCTNMLSDKEQLRDISSIGLKTVIGELPPASSGSALAANVCKKITGRLTSAIAKQEDVSVQLEALDIMADMLSRQGGLLVNFHPSILTCLLPQLTSPRLAVRKRTIIALGHLVMSCGNIVFVDLIEHLLSELSKNDSMSTTRTYIQCIAAISRQAGHRIGEYLEKIIPLVVKFCNVDDDELREYCIQAFESFVRRCPKEVYPHVSTIINICLKYLTYDPNYNYDDEDEDENAMDADGGDDDDQGSDDEYSDDDDMSWKVRRAAAKCLDAVVSTRHEMLPEFYKTVSPALIARFKEREENVKADVFHAYLSLLKQTRPVQSWLCDPDAMEQGDTPLTMLQSQVPNIVKALHKQMKEKSVKTRQCCFNMLTELVNVLPGALTQHIPVLVPGIIFSLNDKSSSSNLKIDALSCLYVILCNHSPQVFHPHVQALVPPVVACVGDPFYKITSEALLVTQQLVKVIRPLDQPSSFDATPYIKDLFTCTIKRLKAADIDQEVKERAISCMGQIICNLGDNLGPDLSNTLQIFLERLKNEITRLTTVKALTLIAGSPLKIDLRPVLGEGVPILASFLRKNQRALKLGTLSALDILIKNYSDSLTAAMIDAVLDELPPLISESDMHVSQMAISFLTTLAKVYPSSLSKISGSILNELIGLVRSPLLQGGALSAMLDFFQALVVTGTNNLGYMDLLRMLTGPVYSQSTALTHKQSYYSIAKCVAALTRACPKEGPAVVGQFIQDVKNSRSTDSIRLLALLSLGEVGHHIDLSGQLELKSVILEAFSSPSEEVKSAASYALGSISVGNLPEYLPFVLQEITSQPKRQYLLLHSLKEIISSASVAGLKPYVENIWALLLKHCECAEEGTRNVVAECLGKLTLIDPETLLPRLKGYLISGSSYARSSVVTAVKFTISDHPQPIDPLLKNCIGDFLKTLEDPDLNVRRVALVTFNSAAHNKPSLIRDLLDSVLPHLYNETKVRKELIREVEMGPFKHTVDDGLDIRKAAFECMYTLLDSCLDRLDIFEFLNHVEDGLKDHYDIKMLTFLMLVRLSTLCPSAVLQRLDRLVEPLRATCTTKVKANSVKQEFEKQDELKRSAMRAVAALLTIPEAEKSPLMSEFQSQISSNPELAAIFESIQKDSSSTNLESMDTS
B4: T-complex protein 1 subunit beta (protein, UniProt P80314 1-535)
chain: MASLSLAPVNIFKAGADEERAETARLSSFIGAIAIGDLVKSTLGPKGMDKILLSSGRDAALMVTNDGATILKNIGVDNPAAKVLVDMSRVQDDEVGDGTTSVTVLAAELLREAESLIAKKIHPQTIISGWREATKAAREALLSSAVDHGSDEARFWQDLMNIAGTTLSSKLLTHHKDHFTKLAVEAVLRLKGSGNLEAIHVIKKLGGSLADSYLDEGFLLDKKIGVNQPKRIENAKILIANTGMDTDKIKIFGSRVRVDSTAKVAEIEHAEKEKMKEKVERILKHGINCFINRQLIYNYPEQLFGAAGVMAIEHADFAGVERLALVTGGEIASTFDHPELVKLGSCKLIEEVMIGEDKLIHFSGVALGEACTIVLRGATQQILDEAERSLHDALCVLAQTVKDPRTVYGGGCSEMLMAHAVTQLANRTPGKEAVAMESFAKALRMLPTIIADNAGYDSADLVAQLRAAHSEGHITAGLDMKEGTIGDMAVLGITESFQVKRQVLLSAAEAAEVILRVDNIIKAAPRKRVPDHHPC

By UniProt entry, the sequences of proteins in these tests, tags left out. Chains listed by the source or under a name are the forms on record and can include a tag or linker. Residues count along the entry.
GST-N-SERT (N-terminal domain of the rat serotonin transporter, residues 1 to 85, fused to glutathione S-transferase) (P31652, residues 1-85): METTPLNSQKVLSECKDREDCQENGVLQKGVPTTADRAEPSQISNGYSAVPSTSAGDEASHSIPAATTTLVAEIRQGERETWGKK
UniProt P31652, residues 595-630: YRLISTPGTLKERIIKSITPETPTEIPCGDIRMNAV
UniProt P50516: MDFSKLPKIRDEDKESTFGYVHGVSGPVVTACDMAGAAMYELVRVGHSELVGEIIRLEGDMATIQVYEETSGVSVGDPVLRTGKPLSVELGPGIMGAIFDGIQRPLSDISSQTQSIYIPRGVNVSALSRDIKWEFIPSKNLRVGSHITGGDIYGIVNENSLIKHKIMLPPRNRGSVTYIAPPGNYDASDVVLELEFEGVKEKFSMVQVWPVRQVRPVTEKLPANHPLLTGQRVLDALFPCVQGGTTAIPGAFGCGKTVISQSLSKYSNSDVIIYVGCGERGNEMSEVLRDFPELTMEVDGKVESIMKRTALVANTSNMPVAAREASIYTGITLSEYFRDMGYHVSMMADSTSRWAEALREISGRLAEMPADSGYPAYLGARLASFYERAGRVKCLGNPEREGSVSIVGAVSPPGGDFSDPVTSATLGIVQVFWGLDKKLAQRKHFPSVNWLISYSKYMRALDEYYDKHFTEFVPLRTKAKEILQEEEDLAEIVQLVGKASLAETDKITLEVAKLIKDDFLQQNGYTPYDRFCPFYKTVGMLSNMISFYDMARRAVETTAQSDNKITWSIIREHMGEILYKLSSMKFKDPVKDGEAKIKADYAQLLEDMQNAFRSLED
UniProt Q8CHC4: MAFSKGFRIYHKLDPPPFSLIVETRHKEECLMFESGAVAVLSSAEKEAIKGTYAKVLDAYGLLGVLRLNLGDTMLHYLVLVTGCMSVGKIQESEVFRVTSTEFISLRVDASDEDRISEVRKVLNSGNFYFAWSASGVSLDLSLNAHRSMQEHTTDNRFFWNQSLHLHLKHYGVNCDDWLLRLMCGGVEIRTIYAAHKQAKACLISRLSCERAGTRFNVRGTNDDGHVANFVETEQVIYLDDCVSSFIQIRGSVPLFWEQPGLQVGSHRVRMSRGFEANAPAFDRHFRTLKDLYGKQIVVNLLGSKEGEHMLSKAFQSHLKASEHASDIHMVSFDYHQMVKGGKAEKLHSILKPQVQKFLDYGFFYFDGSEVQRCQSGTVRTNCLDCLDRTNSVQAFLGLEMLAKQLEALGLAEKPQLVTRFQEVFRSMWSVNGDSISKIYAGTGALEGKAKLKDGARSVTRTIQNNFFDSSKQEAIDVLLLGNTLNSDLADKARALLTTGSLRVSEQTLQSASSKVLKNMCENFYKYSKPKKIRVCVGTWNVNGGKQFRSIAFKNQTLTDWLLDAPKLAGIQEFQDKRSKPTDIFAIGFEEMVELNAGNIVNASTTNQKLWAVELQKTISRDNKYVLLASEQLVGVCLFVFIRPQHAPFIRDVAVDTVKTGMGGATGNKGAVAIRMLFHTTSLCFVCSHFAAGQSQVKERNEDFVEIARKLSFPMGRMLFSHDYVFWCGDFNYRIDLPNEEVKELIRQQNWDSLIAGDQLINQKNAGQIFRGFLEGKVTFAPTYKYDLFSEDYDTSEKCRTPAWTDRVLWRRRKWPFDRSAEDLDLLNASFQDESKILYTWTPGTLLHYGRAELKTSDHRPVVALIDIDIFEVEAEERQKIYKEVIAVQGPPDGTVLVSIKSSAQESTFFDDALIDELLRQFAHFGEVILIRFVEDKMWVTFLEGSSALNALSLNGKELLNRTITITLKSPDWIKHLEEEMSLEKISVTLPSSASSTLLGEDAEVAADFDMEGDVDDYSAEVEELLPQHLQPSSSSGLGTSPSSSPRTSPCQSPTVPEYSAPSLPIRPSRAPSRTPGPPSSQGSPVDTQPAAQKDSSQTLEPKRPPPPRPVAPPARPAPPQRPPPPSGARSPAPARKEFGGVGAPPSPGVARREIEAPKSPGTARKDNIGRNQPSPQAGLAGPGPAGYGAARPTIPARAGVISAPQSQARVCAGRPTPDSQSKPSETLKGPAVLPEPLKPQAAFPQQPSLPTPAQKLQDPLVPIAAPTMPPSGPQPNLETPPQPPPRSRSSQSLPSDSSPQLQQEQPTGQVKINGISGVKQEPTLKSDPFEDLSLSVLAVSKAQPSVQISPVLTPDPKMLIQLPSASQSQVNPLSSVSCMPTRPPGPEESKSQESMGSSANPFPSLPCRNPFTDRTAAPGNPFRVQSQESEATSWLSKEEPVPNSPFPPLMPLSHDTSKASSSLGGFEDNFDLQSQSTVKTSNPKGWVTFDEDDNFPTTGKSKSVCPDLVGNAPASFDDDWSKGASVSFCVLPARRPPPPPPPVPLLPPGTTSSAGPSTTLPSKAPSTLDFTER
UniProt P97427: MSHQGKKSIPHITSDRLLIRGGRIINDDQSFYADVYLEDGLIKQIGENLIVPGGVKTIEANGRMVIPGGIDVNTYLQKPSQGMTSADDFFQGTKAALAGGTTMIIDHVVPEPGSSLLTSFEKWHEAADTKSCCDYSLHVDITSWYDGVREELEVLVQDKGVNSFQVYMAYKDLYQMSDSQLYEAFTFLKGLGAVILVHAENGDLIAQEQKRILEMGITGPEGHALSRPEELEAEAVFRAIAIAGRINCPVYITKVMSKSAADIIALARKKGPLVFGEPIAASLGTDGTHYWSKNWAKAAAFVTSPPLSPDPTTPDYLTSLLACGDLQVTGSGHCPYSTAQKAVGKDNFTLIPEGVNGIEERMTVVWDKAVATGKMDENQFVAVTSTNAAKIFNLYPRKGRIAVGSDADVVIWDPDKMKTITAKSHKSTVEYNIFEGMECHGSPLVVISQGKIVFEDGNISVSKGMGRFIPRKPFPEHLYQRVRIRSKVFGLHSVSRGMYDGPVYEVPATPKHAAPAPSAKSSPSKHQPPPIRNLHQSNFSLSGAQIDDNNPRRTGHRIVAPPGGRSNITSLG
UniProt P46460: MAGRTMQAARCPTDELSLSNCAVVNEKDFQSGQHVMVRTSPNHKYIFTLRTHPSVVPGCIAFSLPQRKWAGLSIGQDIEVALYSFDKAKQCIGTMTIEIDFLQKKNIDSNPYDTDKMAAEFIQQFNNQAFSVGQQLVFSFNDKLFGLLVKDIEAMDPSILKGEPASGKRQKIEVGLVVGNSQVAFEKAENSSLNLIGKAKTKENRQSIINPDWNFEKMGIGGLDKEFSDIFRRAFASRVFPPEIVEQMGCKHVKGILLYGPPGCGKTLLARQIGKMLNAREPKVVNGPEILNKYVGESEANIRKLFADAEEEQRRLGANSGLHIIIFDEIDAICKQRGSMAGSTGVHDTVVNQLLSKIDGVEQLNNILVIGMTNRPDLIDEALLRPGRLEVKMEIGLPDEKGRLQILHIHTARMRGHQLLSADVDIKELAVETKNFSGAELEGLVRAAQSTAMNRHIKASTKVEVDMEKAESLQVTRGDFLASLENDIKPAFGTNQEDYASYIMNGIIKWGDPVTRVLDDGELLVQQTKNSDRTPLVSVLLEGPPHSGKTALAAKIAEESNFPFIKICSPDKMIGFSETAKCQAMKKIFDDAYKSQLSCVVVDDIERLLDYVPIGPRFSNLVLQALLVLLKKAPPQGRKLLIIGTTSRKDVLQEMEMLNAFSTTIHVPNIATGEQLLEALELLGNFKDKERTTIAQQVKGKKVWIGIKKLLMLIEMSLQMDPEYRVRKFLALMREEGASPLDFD

These are yes or no findings as the source states them, for the method shown. In cells and extracts the contact can be indirect. Here binding means that the protein was enriched with, or labelled near, the bait; the list need not be complete.

One test concerns the target GST-C-SERT (C-terminal domain of the rat serotonin transporter, residues 595 to 630, fused to glutathione S-transferase) (rat) (UniProt P31652). The experiment in a line: affinity purification with mass spectrometry; GST-N-SERT or GST-C-SERT on glutathione agarose incubated with mouse brain extract at 4°C for 3 h; washed five times with TBS (50 mM Tris-HCl pH 7.4, 150 mM NaCl, 1 mM EDTA); SDS-PAGE, silver staining, bands excised, LC-MS/MS; negative control: beads without extract; only the target purified.
On to B1, for which the binding entry is reported as “binds”.

Take B2: the binding result is listed as “binds”.

Another test addresses GST-N-SERT (N-terminal domain of the rat serotonin transporter, residues 1 to 85, fused to glutathione S-transferase) (rat) (UniProt P31652). The test is described as above.
Turning to “V-type proton ATPase catalytic subunit A (from UniProt P50516 1-617)”, the binding entry is “binds”.

As to “Synaptojanin 1 (from UniProt Q8CHC4 1-1574)”, the binding result is on record as “binds”.

On to “Dihydropyrimidinase-related protein 1 (from UniProt P97427 1-572)”, for which the binding result was “binds”.

In the case of “N-ethylmaleimide-sensitive factor (Vesicle-fusing ATPase) (from UniProt P46460 1-744)”, the binding result is listed as “binds”.

Consider B1, for which the binding result is reported as “binds”.

As for B3, the binding entry is “binds”.

As for B2, the binding entry is listed as “binds”.

For the molecule B4, the binding result is given as “binds”.
